According to article PMC4381216:
No constants are given. Whether binding was seen depends on the method and setting. In cells and extracts the contact can be indirect. Some entries that bind do so weakly or less than the wild type.

Amino acid sequences for entries named in this document (tags omitted).
UniProt Q9NZL3: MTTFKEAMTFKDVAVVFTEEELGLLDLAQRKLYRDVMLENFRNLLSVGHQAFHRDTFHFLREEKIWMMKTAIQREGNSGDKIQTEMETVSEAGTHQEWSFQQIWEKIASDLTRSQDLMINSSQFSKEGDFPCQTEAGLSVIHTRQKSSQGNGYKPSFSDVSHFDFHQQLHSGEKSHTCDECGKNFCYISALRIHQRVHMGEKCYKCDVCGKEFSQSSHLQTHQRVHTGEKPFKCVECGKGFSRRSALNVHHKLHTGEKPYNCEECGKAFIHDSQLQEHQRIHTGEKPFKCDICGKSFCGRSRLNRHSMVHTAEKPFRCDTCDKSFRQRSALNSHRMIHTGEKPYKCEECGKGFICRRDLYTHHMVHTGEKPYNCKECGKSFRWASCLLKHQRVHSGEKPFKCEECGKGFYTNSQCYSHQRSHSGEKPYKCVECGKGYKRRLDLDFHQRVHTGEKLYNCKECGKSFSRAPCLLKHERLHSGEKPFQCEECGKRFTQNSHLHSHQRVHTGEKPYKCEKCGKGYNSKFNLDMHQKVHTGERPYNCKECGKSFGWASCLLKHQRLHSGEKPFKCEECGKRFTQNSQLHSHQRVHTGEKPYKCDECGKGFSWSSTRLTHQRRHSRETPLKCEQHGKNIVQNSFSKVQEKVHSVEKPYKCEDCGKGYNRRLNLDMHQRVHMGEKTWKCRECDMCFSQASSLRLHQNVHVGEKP
UniProt Q13263: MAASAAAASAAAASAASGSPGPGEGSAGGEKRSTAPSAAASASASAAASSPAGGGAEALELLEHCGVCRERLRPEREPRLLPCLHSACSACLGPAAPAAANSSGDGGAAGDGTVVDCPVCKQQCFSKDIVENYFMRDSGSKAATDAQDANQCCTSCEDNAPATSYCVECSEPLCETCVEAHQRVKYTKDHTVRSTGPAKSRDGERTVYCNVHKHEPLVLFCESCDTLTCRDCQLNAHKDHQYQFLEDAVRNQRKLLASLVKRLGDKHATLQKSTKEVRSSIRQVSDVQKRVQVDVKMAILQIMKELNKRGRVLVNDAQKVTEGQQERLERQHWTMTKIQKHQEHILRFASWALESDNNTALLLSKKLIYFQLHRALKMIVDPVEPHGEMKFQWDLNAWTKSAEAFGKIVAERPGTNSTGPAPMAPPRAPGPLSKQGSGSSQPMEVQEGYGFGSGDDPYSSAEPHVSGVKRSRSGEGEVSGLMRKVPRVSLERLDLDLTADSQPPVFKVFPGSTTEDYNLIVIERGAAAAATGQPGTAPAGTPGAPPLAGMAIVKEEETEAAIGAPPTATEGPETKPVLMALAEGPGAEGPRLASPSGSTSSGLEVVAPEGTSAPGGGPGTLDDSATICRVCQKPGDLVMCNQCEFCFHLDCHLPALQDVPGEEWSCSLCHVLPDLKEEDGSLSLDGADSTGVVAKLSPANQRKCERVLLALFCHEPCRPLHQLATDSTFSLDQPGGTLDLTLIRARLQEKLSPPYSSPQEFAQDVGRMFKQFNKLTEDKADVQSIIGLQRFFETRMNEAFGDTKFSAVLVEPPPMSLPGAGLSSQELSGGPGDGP
UniProt O14744: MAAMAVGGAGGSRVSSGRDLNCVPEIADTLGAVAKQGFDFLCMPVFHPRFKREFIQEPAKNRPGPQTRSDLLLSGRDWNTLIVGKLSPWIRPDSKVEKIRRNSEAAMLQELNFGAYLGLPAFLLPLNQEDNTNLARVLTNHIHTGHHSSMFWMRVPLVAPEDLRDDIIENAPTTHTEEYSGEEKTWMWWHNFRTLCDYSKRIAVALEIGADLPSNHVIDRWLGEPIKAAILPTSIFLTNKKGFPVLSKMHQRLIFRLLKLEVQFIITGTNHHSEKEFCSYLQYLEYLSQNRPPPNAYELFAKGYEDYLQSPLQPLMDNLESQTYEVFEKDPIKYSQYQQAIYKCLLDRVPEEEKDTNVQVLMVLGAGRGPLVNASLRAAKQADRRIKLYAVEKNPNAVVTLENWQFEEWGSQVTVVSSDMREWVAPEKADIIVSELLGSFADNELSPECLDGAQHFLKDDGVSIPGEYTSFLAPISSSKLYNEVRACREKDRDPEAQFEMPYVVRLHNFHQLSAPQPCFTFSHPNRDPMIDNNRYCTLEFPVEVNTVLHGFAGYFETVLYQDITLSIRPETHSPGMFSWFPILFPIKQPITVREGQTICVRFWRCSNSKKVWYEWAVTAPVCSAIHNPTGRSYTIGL

Columns and labels:
3xFlag-ZNF224 = 3xFlag-ZNF224 (UniProt Q9NZL3); assay: co-IP; HEK293 cells transfected with 3xFlag-ZNF224, with or without 2 mM AdOx for 24 h; 1 mg protein extract, anti-Flag M2 antibody or control IgG overnight at 4 °C, Protein A/G PLUS Agarose; Western blot with anti-KAP1
[1] = target: 3xFlag-KAP1 (KRAB-associated protein 1) (UniProt Q13263); assay: co-IP; HEK293 cells transfected with 3xFlag-KAP1; 1 mg protein extract, anti-Flag M2 antibody or control IgG overnight at 4 °C, Protein A/G PLUS Agarose; Western blot with anti-PRMT5

binding (3xFlag-ZNF224)	binding [1]	Substance
binds	–	KAP1 (KRAB-associated protein 1), endogenous (from UniProt Q13263 1-835)
–	binds	PRMT5, protein arginine methyltransferase (endogenous) (from UniProt O14744 1-637) (enzyme)
